Measured values from article PMC5302977.
No constants are given. Whether binding was seen depends on the method and setting. Binding seen in cells or lysates may run through a third protein. Some results given as binding are weak or reduced against the parent protein; the word gives no strength.

The chains behind the UniProt entries cited, without tags or fusion partners.
UniProt O14746: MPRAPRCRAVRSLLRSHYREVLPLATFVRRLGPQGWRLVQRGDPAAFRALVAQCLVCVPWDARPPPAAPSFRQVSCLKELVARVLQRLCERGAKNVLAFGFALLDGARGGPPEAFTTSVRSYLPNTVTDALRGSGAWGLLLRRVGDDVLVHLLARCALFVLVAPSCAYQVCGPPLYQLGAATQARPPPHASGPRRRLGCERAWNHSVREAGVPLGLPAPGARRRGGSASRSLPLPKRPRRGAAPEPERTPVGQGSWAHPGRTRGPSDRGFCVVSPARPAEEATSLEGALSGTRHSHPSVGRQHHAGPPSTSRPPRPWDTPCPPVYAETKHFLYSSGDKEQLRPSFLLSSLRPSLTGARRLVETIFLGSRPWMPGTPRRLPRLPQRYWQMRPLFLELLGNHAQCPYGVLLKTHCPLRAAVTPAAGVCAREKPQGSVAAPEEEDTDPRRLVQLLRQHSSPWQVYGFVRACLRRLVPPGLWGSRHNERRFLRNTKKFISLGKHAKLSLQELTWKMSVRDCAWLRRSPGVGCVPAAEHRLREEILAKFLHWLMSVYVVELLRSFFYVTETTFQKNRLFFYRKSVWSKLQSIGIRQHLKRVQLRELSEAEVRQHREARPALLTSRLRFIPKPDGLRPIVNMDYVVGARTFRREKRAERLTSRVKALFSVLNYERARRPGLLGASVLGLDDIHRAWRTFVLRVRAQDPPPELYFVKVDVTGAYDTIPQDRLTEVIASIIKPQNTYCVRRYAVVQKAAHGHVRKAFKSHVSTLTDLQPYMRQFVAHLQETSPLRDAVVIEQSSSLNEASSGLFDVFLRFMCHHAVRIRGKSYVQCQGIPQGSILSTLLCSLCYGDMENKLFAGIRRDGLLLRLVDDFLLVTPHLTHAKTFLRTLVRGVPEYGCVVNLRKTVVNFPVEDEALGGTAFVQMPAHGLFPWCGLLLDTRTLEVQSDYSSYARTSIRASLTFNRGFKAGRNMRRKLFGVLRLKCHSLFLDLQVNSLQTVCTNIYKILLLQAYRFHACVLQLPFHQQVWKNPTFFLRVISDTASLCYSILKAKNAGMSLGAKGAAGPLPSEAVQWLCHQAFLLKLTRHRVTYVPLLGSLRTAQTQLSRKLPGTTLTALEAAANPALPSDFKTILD
UniProt P17931: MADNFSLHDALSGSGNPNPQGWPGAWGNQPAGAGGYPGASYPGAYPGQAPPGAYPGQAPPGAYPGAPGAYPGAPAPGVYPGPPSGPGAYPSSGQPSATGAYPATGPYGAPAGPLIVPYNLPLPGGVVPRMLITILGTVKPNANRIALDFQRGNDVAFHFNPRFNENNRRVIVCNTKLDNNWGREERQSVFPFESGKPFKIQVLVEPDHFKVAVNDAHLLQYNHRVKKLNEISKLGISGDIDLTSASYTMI

Target: HA-hTERT (human Telomerase Reverse Transcriptase) (human) (UniProt O14746)
Test: co-IP; HEK293 cells co-transfected with Flag-galectin-3 constructs and HA-hTERT; lysate with 750 ug protein pre-cleared, incubated with 1 ug anti-HA or anti-FLAG overnight at 4°C, protein-A/G agarose beads, washed 3 times in RIPA buffer; Western blot; mouse IgG as negative control

Flag-galectin-3 (1-250 aa, full length) (from UniProt P17931 1-250)
binding: binds
